# Laboratory results reported in patent publication US7510847B2, “Kidney-specific urate transporter and gene thereof” (Human Cell Systems, Inc., priority 2001, dated 2009).
# For at least one compound, name, drawing or mass did not settle the structure.
# Target: T1, URAT1 (Homo sapiens, UniProt Q96S37)
# T1 sequence (Q96S37 1-553): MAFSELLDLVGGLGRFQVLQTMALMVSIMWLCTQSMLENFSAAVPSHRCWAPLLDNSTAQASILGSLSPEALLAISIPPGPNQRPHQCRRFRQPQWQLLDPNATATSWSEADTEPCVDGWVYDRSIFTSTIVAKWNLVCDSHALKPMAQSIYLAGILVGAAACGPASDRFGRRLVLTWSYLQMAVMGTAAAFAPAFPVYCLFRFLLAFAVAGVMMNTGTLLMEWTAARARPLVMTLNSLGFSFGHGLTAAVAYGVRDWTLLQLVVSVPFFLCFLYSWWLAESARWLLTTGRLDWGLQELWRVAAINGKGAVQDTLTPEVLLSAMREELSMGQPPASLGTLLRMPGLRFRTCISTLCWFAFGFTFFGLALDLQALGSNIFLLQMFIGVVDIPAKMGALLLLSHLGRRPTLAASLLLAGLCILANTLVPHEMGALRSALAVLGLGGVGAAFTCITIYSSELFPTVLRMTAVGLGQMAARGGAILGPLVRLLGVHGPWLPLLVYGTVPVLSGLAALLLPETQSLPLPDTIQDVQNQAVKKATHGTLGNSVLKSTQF
# Assay: inhibition of [14C] uric acid uptake by oocytes injected with URAT1 cRNA
# Conditions: 50 μM [14C] uric acid, pH 7.4, unlabeled compound at concentrations shown in FIG. 8
structure (smiles),measurement,value
CCCCC1C(=O)N(c2ccccc2)N(c2ccccc2)C1=O [phenylbutazone],inhibition of transport/uptake of [14C] uric acid by URAT1,significantly inhibited
